The results in this text go back to ChEMBL document CHEMBL1129407, “Synthesis and evaluation of heterocyclic carboxamides as potential antipsychotic agents” (J Med Chem, 1996).

Amino acid sequences for entries named in this document (tags omitted). A change or cut given only in a name is not applied to a line headed by its entry.
UniProt Q02152: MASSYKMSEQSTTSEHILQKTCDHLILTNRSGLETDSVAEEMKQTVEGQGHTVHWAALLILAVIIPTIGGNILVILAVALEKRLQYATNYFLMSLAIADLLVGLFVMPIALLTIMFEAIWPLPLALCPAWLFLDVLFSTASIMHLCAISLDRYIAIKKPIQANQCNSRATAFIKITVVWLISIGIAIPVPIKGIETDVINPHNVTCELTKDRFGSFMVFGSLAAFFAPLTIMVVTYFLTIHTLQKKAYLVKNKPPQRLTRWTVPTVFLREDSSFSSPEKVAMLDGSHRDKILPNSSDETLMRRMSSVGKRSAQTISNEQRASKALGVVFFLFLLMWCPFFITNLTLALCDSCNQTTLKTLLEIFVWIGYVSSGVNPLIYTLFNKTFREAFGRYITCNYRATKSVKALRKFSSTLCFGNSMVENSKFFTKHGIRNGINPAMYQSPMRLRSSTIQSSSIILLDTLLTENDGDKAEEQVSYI
UniProt P34968: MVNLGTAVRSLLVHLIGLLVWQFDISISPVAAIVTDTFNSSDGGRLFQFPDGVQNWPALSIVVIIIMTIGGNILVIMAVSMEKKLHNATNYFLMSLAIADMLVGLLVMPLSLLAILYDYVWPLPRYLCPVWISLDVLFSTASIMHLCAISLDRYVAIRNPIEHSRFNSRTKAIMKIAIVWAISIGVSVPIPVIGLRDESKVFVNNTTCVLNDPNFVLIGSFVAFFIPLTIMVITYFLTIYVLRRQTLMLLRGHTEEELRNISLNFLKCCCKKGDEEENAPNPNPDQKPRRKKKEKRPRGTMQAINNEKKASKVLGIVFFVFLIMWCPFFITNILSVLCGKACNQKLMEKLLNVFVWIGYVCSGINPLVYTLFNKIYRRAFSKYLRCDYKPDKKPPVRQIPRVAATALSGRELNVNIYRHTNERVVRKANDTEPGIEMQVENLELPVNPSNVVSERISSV
UniProt P35363: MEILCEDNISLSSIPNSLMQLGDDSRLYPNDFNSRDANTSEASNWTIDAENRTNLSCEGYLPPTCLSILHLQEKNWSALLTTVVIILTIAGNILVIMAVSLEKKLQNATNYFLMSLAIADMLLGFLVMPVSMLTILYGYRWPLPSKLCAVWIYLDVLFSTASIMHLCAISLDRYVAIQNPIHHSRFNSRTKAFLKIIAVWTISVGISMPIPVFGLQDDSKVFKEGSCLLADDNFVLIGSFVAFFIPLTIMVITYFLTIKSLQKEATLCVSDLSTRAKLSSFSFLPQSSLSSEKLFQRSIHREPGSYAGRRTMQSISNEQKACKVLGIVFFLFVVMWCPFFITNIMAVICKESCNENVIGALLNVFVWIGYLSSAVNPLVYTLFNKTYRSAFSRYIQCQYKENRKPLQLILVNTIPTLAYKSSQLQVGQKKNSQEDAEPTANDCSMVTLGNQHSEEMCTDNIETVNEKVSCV

This experiment concerns the target Serotonin 2 (5-HT2) receptor (Mus musculus, UniProt Q02152+P34968+P35363). The experiment can be described thus: Inhibitory activity against serotonin 5-hydroxytryptamine 2 receptor from mice. In kind it is protein assay.

On to `Cc1nc2n(c(=O)c1CCN1CCC(c3noc4cc(F)ccc34)CC1)CCCC2` [RISPERIDONE], for which the IC50 is 1.5 nM. That is a single-digit nanomolar value.
